According to PMC6896172, “Successful Targeting of the Warburg Effect in Prostate Cancer by Glucose-Conjugated 1,4-Naphthoquinones” (Cancers, 2019):
This continues a long series; more values of the same kind are listed elsewhere.

Tested on: 22Rv1 cells
Assay: Global proteome analysis (LC-MS/MS, DIA) of differentially expressed proteins
Assay type: cell-based, human
Experimental: 22Rv1 cells were seeded in T75 culture bottles (4 × 10^6 cells/bottle in 20 mL/bottle), treated for 48 h with the 5 µM of compound 11 or vehicle (DMSO), harvested by scratching, washed twice with ice-cold PBS and flash-frozen. Cells were lysed and sonicated. The protein extracts were then heat-denaturated, reduced, alkylated and digested by trypsin. Peptides were chromatographically separated using full recovery autosampler vials and a nano-UPLC system (Acquity, Waters Corporation, Milford, MS, USA), coupled via electrospray ionization (ESI) to a tandem mass spectrometer equipped with a quadrupole and an orbitrap (QExactive, Thermo Fisher Scientific, Bremen, Germany), using MS/MS mode in data dependent acquisition (DDA) and data independent acquisition (DIA). The peptides, analyzed with DDA-LC-MS/MS, were identified with the search engine Sequest, integrated in the Proteome Discoverer software version 2.0 (Thermo Fischer Scientific) using the human Uniprot protein database (EMBL; Hinxton Cambridge, UK, release December 2018). […] For the details of sample preparation and proceeding, data acquisition and analysis see the Supplementary information. […]
serum (FBS, Invitrogen) and 1% penicillin/streptomycin (Invitrogen)). […]
Cell lines were lysed in 100 mM triethylammonium bicarbonate and 1% w/v sodium deoxycholate buffer followed by probe sonication to destroy polynucleotides and heat induce protein denaturing at 99 °C for 5 min. Protein concentrations were estimated with a bicinchonic acid (BCA) protein assay (Thermo Fisher Scientific, Bremen, Germany). 20 µg of protein were reduced in presence of 10 mM dithiotreithol (Sigma Aldrich) for 30 min at 60 °C followed by cysteine alkylation with 20 mM iodo acetamide (Sigma Aldrich) for 30 min at 37 °C in the dark and enzymatic degradation with sequencing grade trypsin (Promega) over night at 37 °C. Digestion was quenched with 1% formic acid (FA), precipitated sodium deoxycholate removed by centrifugation for 5 min at 14,000 g and the supernatant was dried in a vacuum centrifuge.
LC-MS/MS in Data Dependent and Data Independent Mode
Samples were resuspended in 0.1% FA and transferred into a full recovery autosampler vial (Waters). Chromatographic separation was achieved on a nano -UPLC system (Acquity, Waters Corporation, Milford, MS, USA) with a two-buffer-system (buffer A: 0.1% FA in water, buffer B:
0.1% FA in Acetonitrile (ACN), both at pH = 3). Attached to the UPLC was a reversed -phase peptide trapping column (Symmetry C18, 180 µm × 20 mm, 100 Å pore size, 5 µm particle size) for desalting, followed by a reversed-phase capillary separation of the tryptic peptides (BEH C18; 75 µm × 200 mm, 130 Å pore size, 1.7 µm particle size), using a 60 min gradient with increasing ACN concentration from 2–30% ACN. The eluting peptides were analyzed on a quadrupole-orbitrap mass spectrometer (QExactive, Thermo Fisher Scientific, Bremen, Germany) in data dependent acquisition (DDA) and data independent acquisition (DIA) for quantification.
In DDA mode, one replicate of each cell line was randomly chosen and 1 µg per sample was used per LC-MS/MS run to build a reference spectral library used for data extraction of samples acquired in DIA mode. For DDA, the 12 most intense ions per precursor scan (1 × 10 6 ions, 70,000 Resolution, 120 ms fill time) were analyzed by MS/MS (HCD at 25 normalized collision energy, 1 × 105 ions, 17,500 Resolution, 50 ms fill time) in a range of 400–1300 m/z. A dynamic precursor exclusion of 20 s was used. For DIA, 1 µg of each sample was analyzed using a 30 sequential 20 Da fixed window method covering the mass range from 400 –1000 m/z. Per cycle, 2 precursor scans (1 × […]
28 normalized collision energy, 1 × 106 ions, 17,500 Resolution, 50 ms fill time) were performed.
After the first precursor scan, 15 MS/MS scans were performed covering the precursor mass range from 400–700 m/z followed by the second precursor scan and another 15 MS/MS scans ranging from […]
LC-MS/MS Data Processing and Analysis […]

## CC1(C)OC2OC(C(O)COC3=CC(=O)c4cccc(O)c4C3=O)C(O)C2O1 (stereo not drawn) [Compound 11]
DHX15_HUMAN O43143
  Fold change (treated / control): 0.9051
DHX30_HUMAN Q7L2E3
  Fold change (treated / control): 0.6273
DIAP1_HUMAN O60610
  Fold change (treated / control): 1.239
DIDO1_HUMAN Q9BTC0
  Fold change (treated / control): 0.5009
DJB11_HUMAN Q9UBS4
  Fold change (treated / control): 1.136
DKC1_HUMAN O60832
  Fold change (treated / control): 0.8634
DNJA3_HUMAN Q96EY1
  Fold change (treated / control): 1.243
DNJC7_HUMAN Q99615
  Fold change (treated / control): 0.6825
DNLI1_HUMAN P18858
  Fold change (treated / control): 0.4962
DNMT1_HUMAN P26358
  Fold change (treated / control): 0.5164
DNS2A_HUMAN O00115
  Fold change (treated / control): 1.462
DOPD_HUMAN P30046
  Fold change (treated / control): 1.3746
DPOE3_HUMAN Q9NRF9
  Fold change (treated / control): 0.6062
DPP2_HUMAN Q9UHL4
  Fold change (treated / control): 1.527
DUT_HUMAN P33316
  Fold change (treated / control): 0.4993
DX39B_HUMAN Q13838
  Fold change (treated / control): 0.8243
DYHC1_HUMAN Q14204
  Fold change (treated / control): 1.111
ECH1_HUMAN Q13011
  Fold change (treated / control): 1.323
ECHB_HUMAN P55084
  Fold change (treated / control): 0.9071
EDF1_HUMAN O60869
  Fold change (treated / control): 0.6154
EDN3_HUMAN P14138
  Fold change (treated / control): 0.08248
EF1A2_HUMAN Q05639
  Fold change (treated / control): 1.362
EF1B_HUMAN P24534
  Fold change (treated / control): 1.196
EF1D_HUMAN P29692
  Fold change (treated / control): 1.228
EF1G_HUMAN P26641
  Fold change (treated / control): 1.244
EF2_HUMAN P13639
  Fold change (treated / control): 1.234
EFTU_HUMAN P49411
  Fold change (treated / control): 0.6185
EI2BA_HUMAN Q14232
  Fold change (treated / control): 0.8901
ERF3A_HUMAN P15170
  Fold change (treated / control): 1.126
ERGI1_HUMAN Q969X5
  Fold change (treated / control): 1.217
ERP29_HUMAN P30040
  Fold change (treated / control): 1.223
ERP44_HUMAN Q9BS26
  Fold change (treated / control): 1.188
ETFA_HUMAN P13804
  Fold change (treated / control): 0.8829
EZRI_HUMAN P15311
  Fold change (treated / control): 1.285
F111B_HUMAN Q6SJ93
  Fold change (treated / control): 0.3955
FA5_HUMAN P12259
  Fold change (treated / control): 3.338
FAHD1_HUMAN Q6P587
  Fold change (treated / control): 1.4702
FAKD2_HUMAN Q9NYY8
  Fold change (treated / control): 0.6444
FAKD4_HUMAN Q969Z0
  Fold change (treated / control): 0.7242
FAS_HUMAN P49327
  Fold change (treated / control): 0.6765
FFAR4_HUMAN Q5NUL3
  Fold change (treated / control): 1.972
FIS1_HUMAN Q9Y3D6
  Fold change (treated / control): 1.23
FKBP8_HUMAN Q14318
  Fold change (treated / control): 0.6712
FLII_HUMAN Q13045
  Fold change (treated / control): 1.166
FLOT2_HUMAN Q14254
  Fold change (treated / control): 0.7567
G3BP1_HUMAN Q13283
  Fold change (treated / control): 0.8044
G6PI_HUMAN P06744
  Fold change (treated / control): 1.197
GANAB_HUMAN Q14697
  Fold change (treated / control): 1.172
GAR1_HUMAN Q9NY12
  Fold change (treated / control): 1.412
GARS_HUMAN P41250
  Fold change (treated / control): 1.337
GBB1_HUMAN P62873
  Fold change (treated / control): 1.1916
GCDH_HUMAN Q92947
  Fold change (treated / control): 0.7269
GDF15_HUMAN Q99988
  Fold change (treated / control): 6.064
GDIA_HUMAN P31150
  Fold change (treated / control): 1.322
GELS_HUMAN P06396
  Fold change (treated / control): 3.759
GEPH_HUMAN Q9NQX3
  Fold change (treated / control): 1.319
GFPT1_HUMAN Q06210
  Fold change (treated / control): 1.547
GGH_HUMAN Q92820
  Fold change (treated / control): 1.492
GHITM_HUMAN Q9H3K2
  Fold change (treated / control): 1.52
GL8D1_HUMAN Q68CQ7
  Fold change (treated / control): 0.6726
GLOD4_HUMAN Q9HC38
  Fold change (treated / control): 1.139
GLYG_HUMAN P46976
  Fold change (treated / control): 1.235
GLYM_HUMAN P34897
  Fold change (treated / control): 1.22
GLYR1_HUMAN Q49A26
  Fold change (treated / control): 0.5273
GNA1_HUMAN Q96EK6
  Fold change (treated / control): 1.1769
GNL1_HUMAN P36915
  Fold change (treated / control): 1.66
GNS_HUMAN P15586
  Fold change (treated / control): 1.596
GPI8_HUMAN Q92643
  Fold change (treated / control): 1.085
GRP75_HUMAN P38646
  Fold change (treated / control): 1.094
GRSF1_HUMAN Q12849
  Fold change (treated / control): 0.6529
GSHR_HUMAN P00390
  Fold change (treated / control): 1.251
GTF2I_HUMAN P78347
  Fold change (treated / control): 0.691
H2AY_HUMAN O75367
  Fold change (treated / control): 0.6499
H4_HUMAN P62805
  Fold change (treated / control): 0.5561
H10_HUMAN P07305
  Fold change (treated / control): 1.3122
H15_HUMAN P16401
  Fold change (treated / control): 0.9259
HBA_HUMAN P69905
  Fold change (treated / control): 2.912
HCD2_HUMAN Q99714
  Fold change (treated / control): 1.198
HDHD5_HUMAN Q9BXW7
  Fold change (treated / control): 0.4429
HEM6_HUMAN P36551
  Fold change (treated / control): 0.7705
HEXB_HUMAN P07686
  Fold change (treated / control): 1.461
HIC2_HUMAN Q96JB3
  Fold change (treated / control): 0.3552
HINT1_HUMAN P49773
  Fold change (treated / control): 1.268
HINT2_HUMAN Q9BX68
  Fold change (treated / control): 1.148
HMGA1_HUMAN P17096
  Fold change (treated / control): 1.982
HMOX1_HUMAN P09601
  Fold change (treated / control): 5.6185
HNRH1_HUMAN P31943
  Fold change (treated / control): 0.7863
HNRH3_HUMAN P31942
  Fold change (treated / control): 1.243
HNRL2_HUMAN Q1KMD3
  Fold change (treated / control): 1.166
HNRPQ_HUMAN O60506
  Fold change (treated / control): 1.316
HNRPU_HUMAN Q00839
  Fold change (treated / control): 0.9228
HP1B3_HUMAN Q5SSJ5
  Fold change (treated / control): 0.7171
HPBP1_HUMAN Q9NZL4
  Fold change (treated / control): 0.344
HPRT_HUMAN P00492
  Fold change (treated / control): 1.177
HS71A_HUMAN P0DMV8
  Fold change (treated / control): 0.8732
HSPB1_HUMAN P04792
  Fold change (treated / control): 1.876
HSPB6_HUMAN O14558
  Fold change (treated / control): 0.6349
I2BP2_HUMAN Q7Z5L9
  Fold change (treated / control): 1.686
ICLN_HUMAN P54105
  Fold change (treated / control): 2.931
IDH3A_HUMAN P50213
  Fold change (treated / control): 0.7993
IDHC_HUMAN O75874
  Fold change (treated / control): 1.211
IF2B1_HUMAN Q9NZI8
  Fold change (treated / control): 1.622
